Experimental data reported in patent US7148329 (KATHOLIEKE UNIVERSITEIT NIJMEGEN, dated 2006).
These are yes or no findings as the source states them, for the method shown. For some assays here: In cells and extracts the contact can be indirect. Some entries that bind do so weakly or less than the wild type. Tags and fused reporters may be left off the sequences shown.

Amino acid sequences for entries named in this document (tags omitted). A change or cut given only in a name is not applied to a line headed by its entry.
UniProt Q9NNX6: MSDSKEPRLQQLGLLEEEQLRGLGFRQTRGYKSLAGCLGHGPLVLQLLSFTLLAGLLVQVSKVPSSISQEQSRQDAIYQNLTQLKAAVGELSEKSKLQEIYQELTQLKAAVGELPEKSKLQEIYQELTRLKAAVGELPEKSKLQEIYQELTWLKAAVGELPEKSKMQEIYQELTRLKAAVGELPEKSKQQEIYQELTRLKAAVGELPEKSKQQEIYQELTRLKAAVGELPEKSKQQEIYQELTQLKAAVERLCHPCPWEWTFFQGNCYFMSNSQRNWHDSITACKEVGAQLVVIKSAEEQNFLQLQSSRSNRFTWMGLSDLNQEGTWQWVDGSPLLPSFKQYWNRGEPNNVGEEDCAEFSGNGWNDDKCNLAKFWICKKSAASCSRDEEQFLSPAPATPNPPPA

What was measured:
[1] = biological target: T1, ICAM-3-Fc chimera (human) (UniProt P32942); assay: ICAM-3Fc bead adhesion to COS7-DC-SIGN (FIG. 4B)
T1 sequence (looked up): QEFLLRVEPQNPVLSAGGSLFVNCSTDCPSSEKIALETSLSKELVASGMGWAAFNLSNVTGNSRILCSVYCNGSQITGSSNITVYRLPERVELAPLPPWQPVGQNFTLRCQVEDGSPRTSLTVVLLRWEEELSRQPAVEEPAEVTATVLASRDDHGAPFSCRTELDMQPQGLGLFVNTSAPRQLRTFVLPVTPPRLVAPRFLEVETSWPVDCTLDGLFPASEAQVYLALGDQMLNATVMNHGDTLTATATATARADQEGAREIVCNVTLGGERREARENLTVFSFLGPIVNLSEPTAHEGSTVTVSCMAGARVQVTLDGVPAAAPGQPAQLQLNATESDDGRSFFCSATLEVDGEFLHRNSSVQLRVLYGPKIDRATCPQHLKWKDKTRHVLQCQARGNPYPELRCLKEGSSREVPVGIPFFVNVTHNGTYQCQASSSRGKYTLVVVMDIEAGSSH

[2] = biological target: T1, ICAM-3-Fc chimera (human); assay: ICAM-3Fc fluorescent bead adhesion to DC
[3] = biological target: T1, ICAM-3-Fc chimera (human); assay: ICAM-3Fc fluorescent bead adhesion to COS7 transfectants
[4] = biological target: T1, ICAM-3-Fc chimera (human); assay: pull-down from DC lysate with ICAM-3-Fc coated beads (results not shown)
[5] = biological target: T1, ICAM-3-Fc chimera (human); assay: ICAM-3 bead adhesion to DC (FIG. 6A)

binding [1]: binds | binding [2]: binds | binding [3]: binds | binding [4]: binds | binding [5]: binds
Substance: DC-Specific ICAM-3 Grabbing Non-integrin (DC-SIGN) (from UniProt Q9NNX6 1-404) (receptor)
